Earlier results as cited in patent US8945519B2, “Compositions useful for tooth whitening” (McNeil-PPC, Inc., priority 2007, dated 2015).
The name of at least one read-out is uncertain.

Details: Hildebrand solubility parameter of the ingredient

SMILES | Solubility Parameter (cal/cm^3)^1/2
CCCCCCCC/C=C\CCCCCCCCO [Oleyl Alcohol] | 8.95 (cal/cm^3)^1/2
OCC(O)CO [Glycerine] | 16.26 (cal/cm^3)^1/2
